Results are given in words; binding and its absence hold for the method and conditions named. In cells and extracts the contact can be indirect. Some results given as binding are weak or reduced against the parent protein; the word gives no strength.
What was measured:
[1] = target: Grin2b (rat (endogenous in hippocampus)) (UniProt Q00960); assay: co-IP; endogenous bait immunoprecipitated with antibody-crosslinked beads from rat brain (hippocampus) homogenate, same protocol as for LC-MS, eluted in Laemmli buffer, immunoblot
[2] = target: rat Grm3 with a C-terminal Myc tag (rat) (UniProt P31422); assay: co-IP; HEK or N2A cells transfected with Myc-tagged receptor and untagged BK-alpha; lysis in 4 mM HEPES pH 7.4, 200 mM NaCl, 0.5% NP-40, 0.5% Triton; Myc agarose beads; immunoblot with anti-Kcnma1 and anti-Myc
[3] = target: rat Grm5 with a C-terminal Myc tag (rat) (UniProt P31424); assay: as above

Chains of the proteins cited; added tags and fusions are not shown. Residues count along the entry.
UniProt Q00960, residues 27-1482: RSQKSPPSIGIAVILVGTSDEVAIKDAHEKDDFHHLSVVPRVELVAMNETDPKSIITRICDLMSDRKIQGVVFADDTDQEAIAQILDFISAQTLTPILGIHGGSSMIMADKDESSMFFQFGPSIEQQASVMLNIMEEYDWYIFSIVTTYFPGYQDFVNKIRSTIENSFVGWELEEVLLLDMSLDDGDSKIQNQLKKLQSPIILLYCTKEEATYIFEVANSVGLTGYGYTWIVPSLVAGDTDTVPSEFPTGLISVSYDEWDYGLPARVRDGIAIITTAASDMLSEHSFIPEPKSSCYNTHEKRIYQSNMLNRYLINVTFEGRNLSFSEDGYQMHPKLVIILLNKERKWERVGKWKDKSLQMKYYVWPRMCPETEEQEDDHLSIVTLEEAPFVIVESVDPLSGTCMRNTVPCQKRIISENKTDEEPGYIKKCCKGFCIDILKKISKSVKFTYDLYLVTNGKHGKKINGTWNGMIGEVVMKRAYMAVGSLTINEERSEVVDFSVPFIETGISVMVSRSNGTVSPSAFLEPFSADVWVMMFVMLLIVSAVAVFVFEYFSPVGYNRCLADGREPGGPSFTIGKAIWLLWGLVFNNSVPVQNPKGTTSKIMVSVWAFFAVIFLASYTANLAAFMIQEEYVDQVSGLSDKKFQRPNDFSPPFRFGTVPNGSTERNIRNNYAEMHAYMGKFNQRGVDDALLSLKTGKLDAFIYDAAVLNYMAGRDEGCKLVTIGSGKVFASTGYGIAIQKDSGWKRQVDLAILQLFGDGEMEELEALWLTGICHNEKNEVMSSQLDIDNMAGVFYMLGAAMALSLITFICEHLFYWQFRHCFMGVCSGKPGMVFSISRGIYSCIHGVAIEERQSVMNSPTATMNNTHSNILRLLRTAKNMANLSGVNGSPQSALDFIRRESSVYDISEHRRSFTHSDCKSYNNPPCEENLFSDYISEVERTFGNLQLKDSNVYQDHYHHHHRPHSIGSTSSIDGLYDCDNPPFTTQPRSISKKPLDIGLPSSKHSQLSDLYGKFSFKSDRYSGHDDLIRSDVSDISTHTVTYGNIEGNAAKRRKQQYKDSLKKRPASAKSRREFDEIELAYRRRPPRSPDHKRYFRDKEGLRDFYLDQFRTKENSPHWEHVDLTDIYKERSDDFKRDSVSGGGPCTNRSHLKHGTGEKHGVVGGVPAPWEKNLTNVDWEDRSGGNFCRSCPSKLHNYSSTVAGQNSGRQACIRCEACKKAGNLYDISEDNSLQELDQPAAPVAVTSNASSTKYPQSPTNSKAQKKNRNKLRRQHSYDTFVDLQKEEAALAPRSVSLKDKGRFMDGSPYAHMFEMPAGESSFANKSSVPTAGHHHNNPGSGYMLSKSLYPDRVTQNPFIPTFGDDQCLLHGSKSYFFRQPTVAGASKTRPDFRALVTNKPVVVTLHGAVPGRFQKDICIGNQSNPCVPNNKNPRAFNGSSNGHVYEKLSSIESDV
UniProt P31422, residues 23-879: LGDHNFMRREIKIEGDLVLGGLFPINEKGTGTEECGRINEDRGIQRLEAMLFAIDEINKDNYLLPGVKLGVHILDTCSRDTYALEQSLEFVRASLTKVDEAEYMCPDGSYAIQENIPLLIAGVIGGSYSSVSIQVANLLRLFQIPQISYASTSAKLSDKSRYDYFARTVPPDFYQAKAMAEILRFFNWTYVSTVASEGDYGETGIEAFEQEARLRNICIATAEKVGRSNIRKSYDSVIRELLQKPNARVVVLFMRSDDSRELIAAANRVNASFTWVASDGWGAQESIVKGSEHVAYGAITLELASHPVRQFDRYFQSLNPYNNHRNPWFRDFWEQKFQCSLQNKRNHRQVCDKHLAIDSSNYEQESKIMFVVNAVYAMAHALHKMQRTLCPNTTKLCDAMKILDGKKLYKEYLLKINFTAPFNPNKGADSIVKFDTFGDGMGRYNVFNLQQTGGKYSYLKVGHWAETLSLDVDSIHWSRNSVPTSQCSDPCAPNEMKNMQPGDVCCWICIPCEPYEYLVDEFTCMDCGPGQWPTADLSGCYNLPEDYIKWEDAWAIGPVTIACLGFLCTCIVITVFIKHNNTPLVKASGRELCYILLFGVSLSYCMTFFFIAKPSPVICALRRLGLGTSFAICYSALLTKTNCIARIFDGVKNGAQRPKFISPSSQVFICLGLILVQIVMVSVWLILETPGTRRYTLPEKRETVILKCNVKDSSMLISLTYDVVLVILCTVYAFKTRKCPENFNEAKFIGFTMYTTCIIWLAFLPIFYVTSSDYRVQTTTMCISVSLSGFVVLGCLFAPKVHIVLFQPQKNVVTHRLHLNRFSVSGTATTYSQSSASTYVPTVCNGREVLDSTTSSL
UniProt P31424, residues 21-1203: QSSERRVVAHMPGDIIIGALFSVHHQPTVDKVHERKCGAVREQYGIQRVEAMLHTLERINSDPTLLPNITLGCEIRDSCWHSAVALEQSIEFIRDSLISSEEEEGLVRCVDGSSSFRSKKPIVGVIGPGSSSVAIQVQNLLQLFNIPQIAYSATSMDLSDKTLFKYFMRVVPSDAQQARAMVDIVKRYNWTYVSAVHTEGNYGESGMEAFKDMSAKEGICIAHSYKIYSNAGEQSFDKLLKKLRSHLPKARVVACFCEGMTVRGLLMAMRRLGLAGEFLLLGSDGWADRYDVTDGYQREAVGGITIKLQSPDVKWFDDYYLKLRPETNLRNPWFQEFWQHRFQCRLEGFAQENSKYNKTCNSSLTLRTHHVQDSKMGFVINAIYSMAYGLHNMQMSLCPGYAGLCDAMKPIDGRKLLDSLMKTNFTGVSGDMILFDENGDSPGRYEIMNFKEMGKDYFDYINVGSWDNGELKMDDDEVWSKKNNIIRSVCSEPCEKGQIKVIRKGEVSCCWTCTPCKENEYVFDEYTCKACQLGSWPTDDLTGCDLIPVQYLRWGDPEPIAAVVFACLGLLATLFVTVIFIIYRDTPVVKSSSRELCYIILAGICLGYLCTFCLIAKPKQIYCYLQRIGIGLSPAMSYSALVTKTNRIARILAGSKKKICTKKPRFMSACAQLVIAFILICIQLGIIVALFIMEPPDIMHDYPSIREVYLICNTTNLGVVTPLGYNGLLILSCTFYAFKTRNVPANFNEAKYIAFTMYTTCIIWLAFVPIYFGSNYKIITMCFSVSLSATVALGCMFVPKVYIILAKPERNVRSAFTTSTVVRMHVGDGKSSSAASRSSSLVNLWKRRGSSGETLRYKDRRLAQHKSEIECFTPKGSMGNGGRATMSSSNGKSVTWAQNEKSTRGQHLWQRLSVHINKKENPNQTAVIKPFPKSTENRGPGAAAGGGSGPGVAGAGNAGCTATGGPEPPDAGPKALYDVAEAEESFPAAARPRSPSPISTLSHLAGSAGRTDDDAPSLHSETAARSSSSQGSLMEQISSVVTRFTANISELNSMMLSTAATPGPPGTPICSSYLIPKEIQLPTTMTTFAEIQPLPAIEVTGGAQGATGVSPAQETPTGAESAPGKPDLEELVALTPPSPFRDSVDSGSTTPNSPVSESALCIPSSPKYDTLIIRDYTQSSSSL
UniProt P15385: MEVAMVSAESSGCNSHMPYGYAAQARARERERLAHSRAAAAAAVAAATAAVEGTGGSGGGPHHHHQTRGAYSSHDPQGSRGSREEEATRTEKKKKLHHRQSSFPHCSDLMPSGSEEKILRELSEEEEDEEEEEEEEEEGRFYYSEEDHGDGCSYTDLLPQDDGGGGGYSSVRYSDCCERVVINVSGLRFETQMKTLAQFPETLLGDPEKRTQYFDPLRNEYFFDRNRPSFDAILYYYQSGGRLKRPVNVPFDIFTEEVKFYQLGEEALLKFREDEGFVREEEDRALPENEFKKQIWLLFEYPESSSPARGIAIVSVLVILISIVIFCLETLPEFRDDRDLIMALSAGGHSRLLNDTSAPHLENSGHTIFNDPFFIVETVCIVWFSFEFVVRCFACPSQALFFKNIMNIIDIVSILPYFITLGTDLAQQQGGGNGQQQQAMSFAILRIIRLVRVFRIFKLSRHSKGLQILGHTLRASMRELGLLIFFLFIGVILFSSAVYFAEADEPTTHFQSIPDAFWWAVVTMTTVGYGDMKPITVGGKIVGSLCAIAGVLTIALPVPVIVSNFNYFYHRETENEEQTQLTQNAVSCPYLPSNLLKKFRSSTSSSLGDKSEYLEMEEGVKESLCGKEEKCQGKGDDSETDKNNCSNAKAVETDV
UniProt Q08460: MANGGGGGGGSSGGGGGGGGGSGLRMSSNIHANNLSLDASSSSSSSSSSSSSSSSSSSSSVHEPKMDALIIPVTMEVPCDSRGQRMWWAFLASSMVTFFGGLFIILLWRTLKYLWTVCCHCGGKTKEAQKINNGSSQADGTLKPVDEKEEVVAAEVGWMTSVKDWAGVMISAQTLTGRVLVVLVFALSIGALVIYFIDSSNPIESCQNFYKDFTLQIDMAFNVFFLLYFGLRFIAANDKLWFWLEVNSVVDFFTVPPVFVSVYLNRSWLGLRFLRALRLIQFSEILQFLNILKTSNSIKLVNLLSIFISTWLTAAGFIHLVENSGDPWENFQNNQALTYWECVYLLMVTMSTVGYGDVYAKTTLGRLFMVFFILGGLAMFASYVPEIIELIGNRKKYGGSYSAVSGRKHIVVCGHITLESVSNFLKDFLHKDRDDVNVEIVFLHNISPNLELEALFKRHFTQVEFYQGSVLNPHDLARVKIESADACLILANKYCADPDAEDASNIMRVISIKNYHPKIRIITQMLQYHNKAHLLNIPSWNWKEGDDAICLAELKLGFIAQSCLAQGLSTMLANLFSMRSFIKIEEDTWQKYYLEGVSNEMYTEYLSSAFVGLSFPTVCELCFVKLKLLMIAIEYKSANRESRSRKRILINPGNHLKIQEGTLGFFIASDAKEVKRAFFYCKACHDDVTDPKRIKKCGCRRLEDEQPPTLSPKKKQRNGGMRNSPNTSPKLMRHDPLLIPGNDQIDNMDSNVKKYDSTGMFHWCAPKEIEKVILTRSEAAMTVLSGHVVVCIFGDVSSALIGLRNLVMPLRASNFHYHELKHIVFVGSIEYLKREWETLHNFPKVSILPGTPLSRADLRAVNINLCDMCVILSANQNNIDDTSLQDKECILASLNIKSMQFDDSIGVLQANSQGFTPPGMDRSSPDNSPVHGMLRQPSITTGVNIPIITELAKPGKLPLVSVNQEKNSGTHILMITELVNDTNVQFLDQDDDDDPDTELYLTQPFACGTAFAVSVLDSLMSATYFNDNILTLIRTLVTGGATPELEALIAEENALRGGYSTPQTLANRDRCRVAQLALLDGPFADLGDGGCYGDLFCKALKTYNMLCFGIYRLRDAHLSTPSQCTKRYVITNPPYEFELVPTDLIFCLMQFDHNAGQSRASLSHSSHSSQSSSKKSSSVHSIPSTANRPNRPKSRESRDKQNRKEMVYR

binding [1]	binding [2]	binding [3]	Substance
binds	–	–	Potassium voltage-gated channel subfamily A member 4 (Kcna4) (from UniProt P15385 1-655)
–	no binding	binds	untagged mouse BK-alpha (from UniProt Q08460 1-1209)

From PMC13096421
